# Results from article PMC7862700.
# By UniProt entry, the sequences of proteins in these tests, tags left out. Where a name states a change or a piece, a line headed by the entry shows the natural chain unless it says otherwise.
# UniProt Q01892: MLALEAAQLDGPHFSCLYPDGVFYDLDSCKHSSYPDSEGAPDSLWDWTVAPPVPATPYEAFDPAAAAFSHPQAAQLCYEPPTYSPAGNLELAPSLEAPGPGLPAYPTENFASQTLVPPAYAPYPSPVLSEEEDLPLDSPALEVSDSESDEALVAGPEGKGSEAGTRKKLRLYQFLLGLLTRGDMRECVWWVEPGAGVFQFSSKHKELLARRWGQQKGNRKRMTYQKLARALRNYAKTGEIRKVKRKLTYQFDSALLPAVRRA
# The entries are a selection whose mix differs from that of the whole data set. At the low end of the ranking, values are background and their order means little.
# Columns and labels:
# Experiment in all cases: DAPPL (digital affinity profiling via proximity ligation, sequencing)
# Conditions in all cases: 10 mM Tris-HCl pH 7.5, 50 mM NaCl, 1 mM DTT, 4% glycerol, room temperature, 30 min; GST-TFs on glutathione beads, 16-mer random dsDNA library, 0.1% …; high values mean tight binding; double strand, one strand shown; scale: fold enrichment (6-mer frequency, TF over GST control)
# EHF = target: T1, EHF (UniProt Q9NZC4)
# T1 sequence: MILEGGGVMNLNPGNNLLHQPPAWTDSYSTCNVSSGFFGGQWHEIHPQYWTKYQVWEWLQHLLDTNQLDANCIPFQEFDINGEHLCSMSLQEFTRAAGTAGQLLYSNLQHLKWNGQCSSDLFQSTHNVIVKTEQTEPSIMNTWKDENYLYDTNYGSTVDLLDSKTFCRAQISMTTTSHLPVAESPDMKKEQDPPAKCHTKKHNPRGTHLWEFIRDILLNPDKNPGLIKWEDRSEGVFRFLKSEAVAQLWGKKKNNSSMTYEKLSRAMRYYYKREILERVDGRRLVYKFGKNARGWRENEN
# SPIB = SPIB (UniProt Q01892)
# ETV2 = target: T2, ETV2 (UniProt O00321)
# T2 sequence: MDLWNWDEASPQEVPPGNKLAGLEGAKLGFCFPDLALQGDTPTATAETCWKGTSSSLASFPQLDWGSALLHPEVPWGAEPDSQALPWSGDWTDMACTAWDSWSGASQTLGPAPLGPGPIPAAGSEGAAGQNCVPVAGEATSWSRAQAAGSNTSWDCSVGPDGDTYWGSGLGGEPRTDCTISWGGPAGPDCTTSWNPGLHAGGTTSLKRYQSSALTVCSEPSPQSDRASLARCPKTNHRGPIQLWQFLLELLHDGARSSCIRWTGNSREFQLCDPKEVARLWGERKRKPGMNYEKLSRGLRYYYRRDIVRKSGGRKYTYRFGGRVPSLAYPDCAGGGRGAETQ
# ETV3L = target: T3, ETV3L (UniProt Q6ZN32)
# T3 sequence: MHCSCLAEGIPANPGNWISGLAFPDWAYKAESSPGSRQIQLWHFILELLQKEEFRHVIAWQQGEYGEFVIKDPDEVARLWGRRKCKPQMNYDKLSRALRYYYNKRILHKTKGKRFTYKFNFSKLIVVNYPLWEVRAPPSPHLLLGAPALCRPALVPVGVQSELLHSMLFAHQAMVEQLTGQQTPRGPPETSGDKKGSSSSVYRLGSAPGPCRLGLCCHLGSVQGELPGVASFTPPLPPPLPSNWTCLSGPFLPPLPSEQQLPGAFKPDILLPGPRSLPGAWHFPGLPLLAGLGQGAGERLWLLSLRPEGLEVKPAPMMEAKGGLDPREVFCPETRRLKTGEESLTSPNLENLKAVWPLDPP
sequence,measurement,setting,value
AATCGA,binding signal,EHF,0.962
same,binding signal,SPIB,1.07
same,binding signal,ETV2,0.854
CCAATC,binding signal,SPIB,1.1
same,binding signal,ETV2,1.16
CAAATT,binding signal,SPIB,1.08
same,binding signal,ETV2,1.09
CACTGG,binding signal,EHF,1.05
same,binding signal,ETV2,1.22
GGTTTC,binding signal,EHF,1.51
same,binding signal,ETV2,1.43
TCTGCC,binding signal,SPIB,1.32
same,binding signal,ETV2,1.24
ACTTTG,binding signal,SPIB,1.16
same,binding signal,ETV2,1.39
TAACAA,binding signal,SPIB,1.13
same,binding signal,ETV2,1.26
TTCGTA,binding signal,SPIB,1.35
same,binding signal,ETV2,1.37
CCCCGG,binding signal,SPIB,1.27
same,binding signal,ETV2,1.24
GTCACA,binding signal,SPIB,1.07
same,binding signal,ETV2,1.01
GTTTTC,binding signal,SPIB,1.2
same,binding signal,ETV2,1.25
CCGATG,binding signal,EHF,1.03
same,binding signal,SPIB,1.2
same,binding signal,ETV2,0.985
CGCTTC,binding signal,SPIB,2.05
same,binding signal,ETV2,1.68
CGTTCA,binding signal,SPIB,1.2
same,binding signal,ETV2,1.19
GCAAAA,binding signal,SPIB,1.13
same,binding signal,ETV2,1.14
TGCTCT,binding signal,SPIB,1.42
same,binding signal,ETV2,1.47
GTACTC,binding signal,SPIB,0.96
same,binding signal,ETV2,0.88
CGCTCT,binding signal,SPIB,1.16
same,binding signal,ETV2,1.12
TGAATT,binding signal,EHF,1.17
same,binding signal,SPIB,1.19
same,binding signal,ETV2,1.19
TGGACC,binding signal,SPIB,1.02
same,binding signal,ETV2,0.978
AATCAA,binding signal,EHF,1.12
same,binding signal,SPIB,1.14
same,binding signal,ETV2,1.48
ATGGAA,binding signal,SPIB,1.19
same,binding signal,ETV2,1.26
CCGTAA,binding signal,EHF,1.17
same,binding signal,ETV2,1.2
TCGAAT,binding signal,SPIB,1.07
same,binding signal,ETV2,1.03
TATATA,binding signal,EHF,1.32
same,binding signal,SPIB,1.49
same,binding signal,ETV2,1.08
AGAAGC,binding signal,EHF,1.21
same,binding signal,ETV2,1.22
AGCCCT,binding signal,EHF,1.18
same,binding signal,ETV3L,1.12
GCCTTG,binding signal,EHF,1.24
same,binding signal,ETV3L,1.34
ATCACT,binding signal,EHF,1.15
same,binding signal,ETV3L,1.16
ATGGTT,binding signal,EHF,1.28
same,binding signal,ETV3L,1.36
CAAAAC,binding signal,EHF,1.26
same,binding signal,ETV3L,1.27
TACTAA,binding signal,EHF,1.3
same,binding signal,ETV3L,1.23
TATAAG,binding signal,EHF,1.1
same,binding signal,ETV3L,1.21
CCATTC,binding signal,EHF,1.07
same,binding signal,ETV3L,1.06
CCCCAT,binding signal,EHF,1.27
same,binding signal,ETV3L,1.29
TTCATA,binding signal,EHF,1.18
same,binding signal,ETV3L,1.23
TGCACG,binding signal,EHF,1.22
same,binding signal,ETV3L,1.1
GTTCTA,binding signal,EHF,1.12
same,binding signal,ETV3L,1.2
CTCTGG,binding signal,EHF,1.35
same,binding signal,ETV3L,1.45
CCCGCC,binding signal,EHF,1.53
same,binding signal,ETV3L,1.56
CTTTCC,binding signal,EHF,2.05
same,binding signal,ETV3L,1.76
CAATCA,binding signal,EHF,0.994
same,binding signal,ETV3L,1.2
CCGCTA,binding signal,EHF,1.41
same,binding signal,ETV3L,1.27
GTCCCT,binding signal,ETV3L,1.16
CGCGAC,binding signal,EHF,1.12
same,binding signal,ETV3L,1.04
ATCCGC,binding signal,EHF,1.82
same,binding signal,ETV3L,1.84
TCATGC,binding signal,EHF,1.15
same,binding signal,ETV3L,1.12
TTTAAA,binding signal,EHF,1.21
same,binding signal,ETV3L,1.35
TGCCCG,binding signal,EHF,1.27
same,binding signal,ETV3L,1.16
TGTGCT,binding signal,EHF,1.11
same,binding signal,ETV3L,1.12
ACACTT,binding signal,ETV3L,1.64
GGTTTA,binding signal,EHF,1.08
same,binding signal,ETV3L,0.967
TCAATA,binding signal,EHF,1.14
same,binding signal,ETV3L,1.24
CATACT,binding signal,EHF,1.31
same,binding signal,ETV3L,1.33
CTTGCC,binding signal,EHF,1.33
same,binding signal,ETV3L,1.31
AAACAT,binding signal,ETV3L,1.46
TCTTTG,binding signal,EHF,1.21
same,binding signal,ETV3L,1.24
AATCAT,binding signal,ETV3L,1.18
TATTCG,binding signal,EHF,1.11
same,binding signal,ETV3L,1.16
ACCTAC,binding signal,EHF,1.21
same,binding signal,ETV3L,1.26
TTTCAG,binding signal,ETV3L,1.31
TTATAG,binding signal,EHF,1.25
same,binding signal,ETV3L,1.28
TGTCTC,binding signal,EHF,1.22
same,binding signal,ETV3L,1.3
CTCAGG,binding signal,EHF,0.987
same,binding signal,ETV3L,0.96
CACTCG,binding signal,EHF,1.18
same,binding signal,ETV3L,1.11
GCTCCT,binding signal,EHF,1.41
same,binding signal,ETV3L,1.61
ATGAAT,binding signal,SPIB,1.23
same,binding signal,ETV3L,1.14
GGCTTC,binding signal,SPIB,1.78
same,binding signal,ETV3L,1.61
ACCAAC,binding signal,EHF,1.18
same,binding signal,ETV3L,1.13
CAGCTT,binding signal,SPIB,1.2
same,binding signal,ETV3L,1.2
CATGAA,binding signal,SPIB,0.967
same,binding signal,ETV3L,0.995
AATGCC,binding signal,SPIB,1.17
same,binding signal,ETV3L,1.07
CTCTTG,binding signal,SPIB,1.43
same,binding signal,ETV3L,1.42
CTGGAT,binding signal,EHF,1.32
same,binding signal,ETV3L,1.5
AAGCAG,binding signal,EHF,1.12
same,binding signal,SPIB,0.967
same,binding signal,ETV3L,1.04
ATGAGC,binding signal,EHF,1.18
same,binding signal,ETV3L,1.14
GATCTT,binding signal,EHF,1.22
same,binding signal,SPIB,1.36
same,binding signal,ETV3L,1.15
ATGTAC,binding signal,EHF,1.25
same,binding signal,SPIB,1.27
same,binding signal,ETV3L,1.32
GTTCCG,binding signal,SPIB,2.15
same,binding signal,ETV3L,1.93
TATCAG,binding signal,SPIB,1.2
same,binding signal,ETV3L,1.11
TGGCAG,binding signal,SPIB,1.12
same,binding signal,ETV3L,1.12
GGCTAG,binding signal,SPIB,1.18
same,binding signal,ETV3L,1.06
CTTAGG,binding signal,SPIB,1.08
same,binding signal,ETV3L,1.01
TTAGTA,binding signal,SPIB,1.06
same,binding signal,ETV3L,1.07
TATGCG,binding signal,SPIB,1.29
same,binding signal,ETV3L,1.39
GTTTCC,binding signal,SPIB,2.84
same,binding signal,ETV3L,2.7
TCGCCT,binding signal,EHF,1.34
same,binding signal,ETV3L,1.23
GATGAA,binding signal,SPIB,1.24
same,binding signal,ETV3L,1.25
CGTTAC,binding signal,SPIB,1.11
same,binding signal,ETV3L,1.18
GCGACT,binding signal,EHF,1.21
same,binding signal,SPIB,1.33
same,binding signal,ETV3L,1.17
AATGCA,binding signal,SPIB,1.34
same,binding signal,ETV3L,1.28
TATTCA,binding signal,EHF,1.32
same,binding signal,SPIB,1.27
same,binding signal,ETV3L,1.43
GAATTC,binding signal,EHF,1.43
same,binding signal,SPIB,1.38
same,binding signal,ETV3L,1.41
TTACTG,binding signal,SPIB,0.991
same,binding signal,ETV3L,1.04
GCCTCC,binding signal,SPIB,1.29
same,binding signal,ETV3L,1.27
CAACAA,binding signal,SPIB,0.992
same,binding signal,ETV3L,0.992
CTTCAG,binding signal,EHF,1.34
same,binding signal,ETV3L,1.26
ACCCTA,binding signal,SPIB,1.16
same,binding signal,ETV3L,1.26
GGAATT,binding signal,SPIB,1.18
same,binding signal,ETV3L,0.982
ACATTC,binding signal,EHF,1.25
same,binding signal,SPIB,1.23
same,binding signal,ETV3L,1.3
CACGAA,binding signal,SPIB,0.988
same,binding signal,ETV3L,1.01
TAGTCC,binding signal,SPIB,1.06
same,binding signal,ETV3L,1.12
TTCTCA,binding signal,SPIB,1.31
same,binding signal,ETV3L,1.23
TTCTCC,binding signal,EHF,1.62
TTAACG,binding signal,EHF,1.15
TAAAGT,binding signal,SPIB,1.11
same,binding signal,ETV3L,1.29
CTCTAA,binding signal,EHF,1.41
GAACAC,binding signal,EHF,1.12
ATTCAG,binding signal,SPIB,1.02
same,binding signal,ETV3L,1.2
CTGCGA,binding signal,SPIB,1.45
same,binding signal,ETV3L,1.4
CGGCTC,binding signal,EHF,1.31
TACCCA,binding signal,EHF,1.05
CTACGA,binding signal,EHF,1.25
CGTATG,binding signal,SPIB,1.09
same,binding signal,ETV3L,1.07
AACCTT,binding signal,EHF,1.33
ATGACA,binding signal,EHF,1.32
GCTGAA,binding signal,EHF,1.1
CTTATG,binding signal,EHF,1.39
TTCTGC,binding signal,EHF,1.46

# 2 records picked at random from the list so far:
sequence,measurement,setting,value
GGCTTC,binding signal,ETV3L,1.61
CACGAA,binding signal,SPIB,0.988

# Part of the list above, bar-delimited.
sequence | measurement | setting | value
CCCCGG | binding signal | SPIB | 1.27
CCCGCC | binding signal | ETV3L | 1.56
TTTAAA | binding signal | ETV3L | 1.35
TTTCAG | binding signal | ETV3L | 1.31
GTTCCG | binding signal | SPIB | 2.15
CAACAA | binding signal | ETV3L | 0.992
